One molecule from US20130178597A1, “POLYIMIDE PRECURSOR, POLYIMIDE, AND MATERIALS TO BE USED IN PRODUCING SAME” (UBE INDUSTRIES, LTD., priority 2010, published 2013) can be followed below.

Data set [1] is described as follows: Light transmittance of solvent at 400 nm after heating with refluxing. Conditions: heated to reflux for 3 hours under nitrogen atmosphere. Type of data set: physicochemical. As to the method:
For light transmittance after heating with refluxing, measurement was carried out using a solvent that had been heated to reflux for 3 hours under nitrogen atmosphere having oxygen concentration of 200 ppm or less.

Data set [2] can be described thus: Light transmittance of solvent at 400 nm. Conditions: light path 1 cm, water as a blank. In kind it is physicochemical. As to the method:
Using a MCPD-300 manufactured by Otsuka Electronics Co., Ltd., and a standard cell having a light path length of 1 cm, the light transmittance of a solvent at 400 nm was measured using water as a blank.

Regarding `CC(=O)N(C)C` [DMAc (99.99%), N,N-dimethylacetamide], the “Light Transmittance at 400 nm after reflux (solvent)” value in data set [1] came to 92%. For the same molecule, the “Light Transmittance at 400 nm (solvent)” value in data set [2] is given as 92%.
